In article PMC12376730:
These are yes or no findings as the source states them, for the method shown. A result given as binding can be weak or reduced; the word gives no strength.

Target: T1, HrpB4 (Xanthomonas euvesicatoria) (UniProt Q56783)
T1 sequence: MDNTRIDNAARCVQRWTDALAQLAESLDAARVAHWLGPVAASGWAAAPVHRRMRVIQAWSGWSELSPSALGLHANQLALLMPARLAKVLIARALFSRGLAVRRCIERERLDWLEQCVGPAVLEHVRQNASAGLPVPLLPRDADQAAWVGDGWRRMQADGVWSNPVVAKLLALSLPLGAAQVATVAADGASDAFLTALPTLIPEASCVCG
Test: two-hybrid; BACTH (bacterial adenylate cyclase-based two-hybrid): T18 and T25 fusions co-expressed in E. coli reporter strain DHM1; cultures spotted on LB indicator plates with X-gal and 2 mM IPTG, five to six days at room temperature in the dark; blue colonies show interaction; each fusion tested against the T25 or T18 domain alone

HrcQATG (the annotated HrcQ protein, which lacks the N-terminal 30 amino acids) (Xanthomonas euvesicatoria)
binding: binds weakly
